This passage reports binding results from PMC3679059.

Results are given in words; binding and its absence hold for the method and conditions named. In cells and extracts the contact can be indirect. Binding calls can cover weak binding; strength is not graded here. Where a sequence is shown, tags or fusion partners need not be part of it.

Assay [1] deals with GST-CCI2 (Arabidopsis thaliana). Description: pull-down; soluble sonicates of E. coli with GST-CCI1 or GST-CCI2 and CLV1 KD-GFP combined, glutathione sepharose 30 minutes at room temperature, washed 3 times, eluted, blot with anti-GFP (ab6556); the legend says purified proteins, immunoprecipitated with anti-GST antibodies.
For assay [2], the target named is GST-CCI1 (Arabidopsis thaliana). Described as above.
The target of assay [3] is CCI1-GFP (Arabidopsis thaliana). Description: co-IP; proteins co-expressed in the same N. benthamiana leaves; total membrane fraction solubilised with 1% triton X-100; IP with anti-GFP and protein A agarose at 4°C, blot with anti-FLAG.

B1: CLV1KD-GFP (domain or fragment, UniProt Q9SYQ8 692-968)
chain: LKEENIIGKGGAGIVYRGSMPNNVDVAIKRLVGRGTGRSDHGFTAEIQTLGRIRHRHIVRLLGYVANKDTNLLLYEYMPNGSLGELLHGSKGGHLQWETRHRVAVEAAKGLCYLHHDCSPLILHRDVKSNNILLDSDFEAHVADFGLAKFLVDGAASECMSSIAGSYGYIAPEYAYTLKVDEKSDVYSFGVVLLELIAGKKPVGEFGEGVDIVRWVRNTEEEITQPSDAAIVVAIVDPRLTGYPLTSVIHVFKIAMMCVEEEAAARPTMREVVHMLT
Consider B1, for which the binding entry in assay [1] and in assay [2] was “binds” in each case.

B2: BAM1-FLAG (full-length) (receptor, UniProt O49545 20-1003)
chain: SRPISEFRALLSLKTSLTGAGDDKNSPLSSWKVSTSFCTWIGVTCDVSRRHVTSLDLSGLNLSGTLSPDVSHLRLLQNLSLAENLISGPIPPEISSLSGLRHLNLSNNVFNGSFPDEISSGLVNLRVLDVYNNNLTGDLPVSVTNLTQLRHLHLGGNYFAGKIPPSYGSWPVIEYLAVSGNELVGKIPPEIGNLTTLRELYIGYYNAFEDGLPPEIGNLSELVRFDGANCGLTGEIPPEIGKLQKLDTLFLQVNVFSGPLTWELGTLSSLKSMDLSNNMFTGEIPASFAELKNLTLLNLFRNKLHGEIPEFIGDLPELEVLQLWENNFTGSIPQKLGENGKLNLVDLSSNKLTGTLPPNMCSGNKLETLITLGNFLFGSIPDSLGKCESLTRIRMGENFLNGSIPKGLFGLPKLTQVELQDNYLSGELPVAGGVSVNLGQISLSNNQLSGPLPPAIGNFTGVQKLLLDGNKFQGPIPSEVGKLQQLSKIDFSHNLFSGRIAPEISRCKLLTFVDLSRNELSGEIPNEITAMKILNYLNLSRNHLVGSIPGSISSMQSLTSLDFSYNNLSGLVPGTGQFSYFNYTSFLGNPDLCGPYLGPCKDGVAKGGHQSHSKGPLSASMKLLLVLGLLVCSIAFAVVAIIKARSLKKASESRAWRLTAFQRLDFTCDDVLDSLKEDNIIGKGGAGIVYKGVMPNGDLVAVKRLAAMSRGSSHDHGFNAEIQTLGRIRHRHIVRLLGFCSNHETNLLVYEYMPNGSLGEVLHGKKGGHLHWDTRYKIALEAAKGLCYLHHDCSPLIVHRDVKSNNILLDSNFEAHVADFGLAKFLQDSGTSECMSAIAGSYGYIAPEYAYTLKVDEKSDVYSFGVVLLELVTGRKPVGEFGDGVDIVQWVRKMTDSNKDSVLKVLDPRLSSIPIHEVTHVFYVAMLCVEEQAVERPTMREVVQILTEIPKLPPSKDQPMTESAPESELSPKSGVQSPPDLLNL
In the case of B2, in assay [3], the binding result was “binds”.

B3: CLV1-FLAG (full-length) (receptor, UniProt Q9SYQ8 25-980)
chain: YTDMEVLLNLKSSMIGPKGHGLHDWIHSSSPDAHCSFSGVSCDDDARVISLNVSFTPLFGTISPEIGMLTHLVNLTLAANNFTGELPLEMKSLTSLKVLNISNNGNLTGTFPGEILKAMVDLEVLDTYNNNFNGKLPPEMSELKKLKYLSFGGNFFSGEIPESYGDIQSLEYLGLNGAGLSGKSPAFLSRLKNLREMYIGYYNSYTGGVPPEFGGLTKLEILDMASCTLTGEIPTSLSNLKHLHTLFLHINNLTGHIPPELSGLVSLKSLDLSINQLTGEIPQSFINLGNITLINLFRNNLYGQIPEAIGELPKLEVFEVWENNFTLQLPANLGRNGNLIKLDVSDNHLTGLIPKDLCRGEKLEMLILSNNFFFGPIPEELGKCKSLTKIRIVKNLLNGTVPAGLFNLPLVTIIELTDNFFSGELPVTMSGDVLDQIYLSNNWFSGEIPPAIGNFPNLQTLFLDRNRFRGNIPREIFELKHLSRINTSANNITGGIPDSISRCSTLISVDLSRNRINGEIPKGINNVKNLGTLNISGNQLTGSIPTGIGNMTSLTTLDLSFNDLSGRVPLGGQFLVFNETSFAGNTYLCLPHRVSCPTRPGQTSDHNHTALFSPSRIVITVIAAITGLILISVAIRQMNKKKNQKSLAWKLTAFQKLDFKSEDVLECLKEENIIGKGGAGIVYRGSMPNNVDVAIKRLVGRGTGRSDHGFTAEIQTLGRIRHRHIVRLLGYVANKDTNLLLYEYMPNGSLGELLHGSKGGHLQWETRHRVAVEAAKGLCYLHHDCSPLILHRDVKSNNILLDSDFEAHVADFGLAKFLVDGAASECMSSIAGSYGYIAPEYAYTLKVDEKSDVYSFGVVLLELIAGKKPVGEFGEGVDIVRWVRNTEEEITQPSDAAIVVAIVDPRLTGYPLTSVIHVFKIAMMCVEEEAAARPTMREVVHMLTNPPKSVANLIAF
Turning to B3, the binding result in assay [3] was “binds”.
